Reference: the supplement of paper PMC10849652
This is one part of the list.

The chains behind the UniProt entries cited, without tags or fusion partners. Where a name states a change or a piece, a line headed by the entry shows the natural chain unless it says otherwise.
UniProt O95067, whole entry, looked up: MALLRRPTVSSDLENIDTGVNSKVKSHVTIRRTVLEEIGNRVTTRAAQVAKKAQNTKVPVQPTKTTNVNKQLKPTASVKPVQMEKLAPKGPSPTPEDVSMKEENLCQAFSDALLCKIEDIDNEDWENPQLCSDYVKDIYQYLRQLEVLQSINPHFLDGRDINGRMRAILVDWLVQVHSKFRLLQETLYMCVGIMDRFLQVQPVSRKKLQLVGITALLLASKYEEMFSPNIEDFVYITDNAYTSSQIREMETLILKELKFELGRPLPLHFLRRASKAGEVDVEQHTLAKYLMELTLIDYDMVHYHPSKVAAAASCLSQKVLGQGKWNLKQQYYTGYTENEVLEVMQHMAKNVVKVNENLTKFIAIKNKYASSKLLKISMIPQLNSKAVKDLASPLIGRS
UniProt Q9BRT8: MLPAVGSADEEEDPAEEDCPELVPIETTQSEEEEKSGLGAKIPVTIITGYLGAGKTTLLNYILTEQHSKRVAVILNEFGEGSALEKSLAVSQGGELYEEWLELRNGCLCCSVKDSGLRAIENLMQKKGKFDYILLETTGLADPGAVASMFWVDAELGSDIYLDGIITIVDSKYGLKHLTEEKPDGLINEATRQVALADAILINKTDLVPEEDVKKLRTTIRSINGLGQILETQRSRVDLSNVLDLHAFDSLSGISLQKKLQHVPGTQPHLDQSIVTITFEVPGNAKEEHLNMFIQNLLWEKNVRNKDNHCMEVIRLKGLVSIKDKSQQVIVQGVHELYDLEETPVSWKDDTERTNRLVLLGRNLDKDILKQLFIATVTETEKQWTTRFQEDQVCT
UniProt Q8NHZ8, whole entry, looked up: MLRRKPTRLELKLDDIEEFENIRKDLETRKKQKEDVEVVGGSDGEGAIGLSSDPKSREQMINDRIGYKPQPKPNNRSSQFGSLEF
UniProt Q8N4J0: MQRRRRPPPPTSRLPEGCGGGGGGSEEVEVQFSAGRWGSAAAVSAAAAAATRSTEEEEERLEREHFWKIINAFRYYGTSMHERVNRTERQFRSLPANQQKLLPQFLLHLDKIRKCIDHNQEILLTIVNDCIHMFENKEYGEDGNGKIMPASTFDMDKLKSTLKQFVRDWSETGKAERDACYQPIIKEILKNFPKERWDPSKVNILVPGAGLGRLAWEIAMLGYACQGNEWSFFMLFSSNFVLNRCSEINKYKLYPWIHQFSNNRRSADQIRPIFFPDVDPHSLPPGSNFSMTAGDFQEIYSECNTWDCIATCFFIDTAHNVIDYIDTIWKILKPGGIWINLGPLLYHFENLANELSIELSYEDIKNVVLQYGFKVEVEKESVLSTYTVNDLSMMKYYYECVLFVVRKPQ
UniProt Q8IWD4: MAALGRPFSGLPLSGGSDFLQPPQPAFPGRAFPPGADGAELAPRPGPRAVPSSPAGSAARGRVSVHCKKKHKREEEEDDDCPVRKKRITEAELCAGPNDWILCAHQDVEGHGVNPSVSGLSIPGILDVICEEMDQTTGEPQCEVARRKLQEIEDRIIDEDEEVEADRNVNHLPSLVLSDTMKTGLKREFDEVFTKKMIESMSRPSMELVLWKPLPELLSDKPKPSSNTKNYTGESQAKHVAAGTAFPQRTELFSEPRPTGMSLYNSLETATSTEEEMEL
UniProt Q08722, whole entry, looked up: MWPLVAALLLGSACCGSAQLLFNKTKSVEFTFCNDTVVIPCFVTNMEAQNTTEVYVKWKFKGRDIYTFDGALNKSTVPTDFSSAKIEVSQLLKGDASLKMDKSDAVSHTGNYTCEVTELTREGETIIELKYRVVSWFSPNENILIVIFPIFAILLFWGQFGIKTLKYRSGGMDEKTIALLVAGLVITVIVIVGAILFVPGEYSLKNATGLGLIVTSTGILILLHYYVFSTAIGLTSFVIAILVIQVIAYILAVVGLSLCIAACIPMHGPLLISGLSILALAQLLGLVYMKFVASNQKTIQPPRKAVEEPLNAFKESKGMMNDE
UniProt P49427: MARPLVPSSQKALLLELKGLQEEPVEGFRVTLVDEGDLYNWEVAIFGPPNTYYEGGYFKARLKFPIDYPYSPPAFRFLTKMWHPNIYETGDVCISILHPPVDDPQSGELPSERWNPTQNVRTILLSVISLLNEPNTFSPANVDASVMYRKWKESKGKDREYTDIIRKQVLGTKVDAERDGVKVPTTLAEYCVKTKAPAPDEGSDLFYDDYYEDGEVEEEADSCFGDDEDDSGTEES
UniProt Q9P0B6: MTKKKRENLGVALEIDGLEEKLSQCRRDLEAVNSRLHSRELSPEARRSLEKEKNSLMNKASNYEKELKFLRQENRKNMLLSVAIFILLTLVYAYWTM
UniProt P15529: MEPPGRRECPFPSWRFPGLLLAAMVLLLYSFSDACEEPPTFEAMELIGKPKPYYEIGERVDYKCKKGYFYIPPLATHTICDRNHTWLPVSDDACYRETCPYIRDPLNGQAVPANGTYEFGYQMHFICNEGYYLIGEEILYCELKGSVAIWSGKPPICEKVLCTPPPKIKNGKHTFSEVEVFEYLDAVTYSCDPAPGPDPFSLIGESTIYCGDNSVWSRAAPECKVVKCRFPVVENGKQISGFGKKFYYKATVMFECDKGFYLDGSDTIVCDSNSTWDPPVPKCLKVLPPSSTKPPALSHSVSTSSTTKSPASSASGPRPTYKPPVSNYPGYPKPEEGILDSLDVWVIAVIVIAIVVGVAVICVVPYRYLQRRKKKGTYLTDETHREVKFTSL
UniProt Q5M9N0: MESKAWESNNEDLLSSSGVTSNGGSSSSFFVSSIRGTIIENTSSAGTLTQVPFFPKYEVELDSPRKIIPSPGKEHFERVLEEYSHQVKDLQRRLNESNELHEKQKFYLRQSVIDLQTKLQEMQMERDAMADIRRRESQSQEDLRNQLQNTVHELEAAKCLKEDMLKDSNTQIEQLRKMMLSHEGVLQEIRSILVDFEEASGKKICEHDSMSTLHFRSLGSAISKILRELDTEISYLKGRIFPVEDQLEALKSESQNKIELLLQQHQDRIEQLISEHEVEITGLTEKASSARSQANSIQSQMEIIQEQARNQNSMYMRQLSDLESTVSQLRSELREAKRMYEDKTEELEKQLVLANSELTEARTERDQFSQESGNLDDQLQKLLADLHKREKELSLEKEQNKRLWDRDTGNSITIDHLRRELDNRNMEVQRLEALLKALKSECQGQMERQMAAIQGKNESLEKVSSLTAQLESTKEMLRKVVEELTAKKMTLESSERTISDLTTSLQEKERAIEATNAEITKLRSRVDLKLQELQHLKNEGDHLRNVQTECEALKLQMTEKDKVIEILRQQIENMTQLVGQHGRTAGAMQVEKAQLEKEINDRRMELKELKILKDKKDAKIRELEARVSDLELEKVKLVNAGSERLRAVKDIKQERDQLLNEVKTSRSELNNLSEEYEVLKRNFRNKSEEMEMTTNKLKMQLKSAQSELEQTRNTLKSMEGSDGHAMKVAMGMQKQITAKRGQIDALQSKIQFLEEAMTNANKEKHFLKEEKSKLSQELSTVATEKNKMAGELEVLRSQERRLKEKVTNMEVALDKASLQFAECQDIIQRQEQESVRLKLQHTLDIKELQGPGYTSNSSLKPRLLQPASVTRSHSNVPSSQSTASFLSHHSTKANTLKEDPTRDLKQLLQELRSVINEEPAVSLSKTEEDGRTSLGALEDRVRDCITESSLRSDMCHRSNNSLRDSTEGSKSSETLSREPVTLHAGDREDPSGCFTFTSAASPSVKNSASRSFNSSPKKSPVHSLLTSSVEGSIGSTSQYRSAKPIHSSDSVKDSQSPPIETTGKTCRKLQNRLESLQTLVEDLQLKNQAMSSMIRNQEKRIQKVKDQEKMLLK
UniProt Q3V6T2: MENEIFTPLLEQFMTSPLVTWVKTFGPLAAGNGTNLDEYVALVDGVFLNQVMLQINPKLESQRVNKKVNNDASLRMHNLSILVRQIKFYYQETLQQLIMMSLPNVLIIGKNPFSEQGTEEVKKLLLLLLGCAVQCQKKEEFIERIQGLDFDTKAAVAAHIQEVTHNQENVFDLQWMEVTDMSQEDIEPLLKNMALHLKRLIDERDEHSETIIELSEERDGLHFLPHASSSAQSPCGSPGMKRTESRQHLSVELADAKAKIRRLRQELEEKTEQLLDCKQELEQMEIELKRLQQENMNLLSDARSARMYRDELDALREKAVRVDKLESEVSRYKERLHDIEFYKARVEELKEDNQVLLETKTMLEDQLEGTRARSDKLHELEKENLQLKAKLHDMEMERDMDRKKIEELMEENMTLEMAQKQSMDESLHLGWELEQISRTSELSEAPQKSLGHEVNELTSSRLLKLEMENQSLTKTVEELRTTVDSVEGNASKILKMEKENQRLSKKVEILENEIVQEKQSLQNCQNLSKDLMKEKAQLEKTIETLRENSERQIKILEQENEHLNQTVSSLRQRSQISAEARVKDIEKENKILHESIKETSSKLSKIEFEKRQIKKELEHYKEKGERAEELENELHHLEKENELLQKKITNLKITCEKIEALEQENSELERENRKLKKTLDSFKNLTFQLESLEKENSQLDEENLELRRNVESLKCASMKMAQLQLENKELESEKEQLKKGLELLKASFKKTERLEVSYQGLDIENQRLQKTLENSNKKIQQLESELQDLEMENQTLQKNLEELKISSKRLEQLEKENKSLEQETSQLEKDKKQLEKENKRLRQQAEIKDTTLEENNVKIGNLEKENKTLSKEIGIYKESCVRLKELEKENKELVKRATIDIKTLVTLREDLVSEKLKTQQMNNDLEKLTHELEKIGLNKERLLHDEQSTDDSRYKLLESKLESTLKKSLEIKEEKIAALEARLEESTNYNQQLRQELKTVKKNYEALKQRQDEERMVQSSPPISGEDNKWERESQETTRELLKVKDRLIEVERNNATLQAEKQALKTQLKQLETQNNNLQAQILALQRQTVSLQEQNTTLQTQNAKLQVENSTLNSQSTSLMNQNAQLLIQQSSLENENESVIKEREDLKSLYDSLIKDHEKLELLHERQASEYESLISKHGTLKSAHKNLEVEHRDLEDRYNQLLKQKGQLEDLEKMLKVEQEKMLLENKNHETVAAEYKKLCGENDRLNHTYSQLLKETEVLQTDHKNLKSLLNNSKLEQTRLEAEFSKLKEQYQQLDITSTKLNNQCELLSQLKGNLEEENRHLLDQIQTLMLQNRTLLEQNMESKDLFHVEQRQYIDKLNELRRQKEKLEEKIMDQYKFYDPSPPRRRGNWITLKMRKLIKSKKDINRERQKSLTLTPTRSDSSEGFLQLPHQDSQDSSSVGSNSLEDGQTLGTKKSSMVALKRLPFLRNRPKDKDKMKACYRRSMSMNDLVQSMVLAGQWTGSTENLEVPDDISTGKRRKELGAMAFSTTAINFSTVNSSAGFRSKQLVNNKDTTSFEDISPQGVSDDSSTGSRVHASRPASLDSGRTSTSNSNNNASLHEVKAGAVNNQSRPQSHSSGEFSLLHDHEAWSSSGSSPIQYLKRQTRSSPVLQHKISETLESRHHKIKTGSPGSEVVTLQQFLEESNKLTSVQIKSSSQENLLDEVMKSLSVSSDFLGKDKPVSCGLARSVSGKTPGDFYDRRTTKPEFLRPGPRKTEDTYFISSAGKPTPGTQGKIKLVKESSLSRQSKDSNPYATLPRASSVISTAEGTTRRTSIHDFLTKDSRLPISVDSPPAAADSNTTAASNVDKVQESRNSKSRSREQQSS
UniProt Q9Y5K6, whole entry, looked up: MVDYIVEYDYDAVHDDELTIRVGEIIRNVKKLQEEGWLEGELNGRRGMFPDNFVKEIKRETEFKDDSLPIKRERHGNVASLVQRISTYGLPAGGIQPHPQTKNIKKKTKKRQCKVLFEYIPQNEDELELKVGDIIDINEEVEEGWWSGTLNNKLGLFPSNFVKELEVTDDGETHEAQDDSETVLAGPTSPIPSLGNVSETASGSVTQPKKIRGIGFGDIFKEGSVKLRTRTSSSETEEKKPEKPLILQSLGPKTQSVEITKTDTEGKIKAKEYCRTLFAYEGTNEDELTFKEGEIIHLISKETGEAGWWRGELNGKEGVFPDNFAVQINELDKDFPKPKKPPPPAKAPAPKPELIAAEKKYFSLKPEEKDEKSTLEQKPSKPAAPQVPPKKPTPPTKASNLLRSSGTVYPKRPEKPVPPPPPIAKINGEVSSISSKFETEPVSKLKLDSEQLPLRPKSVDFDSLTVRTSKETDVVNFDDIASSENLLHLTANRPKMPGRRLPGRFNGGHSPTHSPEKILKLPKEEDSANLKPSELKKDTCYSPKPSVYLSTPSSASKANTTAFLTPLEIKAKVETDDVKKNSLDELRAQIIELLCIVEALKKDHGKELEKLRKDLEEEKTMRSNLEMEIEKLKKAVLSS
UniProt Q9H6E4: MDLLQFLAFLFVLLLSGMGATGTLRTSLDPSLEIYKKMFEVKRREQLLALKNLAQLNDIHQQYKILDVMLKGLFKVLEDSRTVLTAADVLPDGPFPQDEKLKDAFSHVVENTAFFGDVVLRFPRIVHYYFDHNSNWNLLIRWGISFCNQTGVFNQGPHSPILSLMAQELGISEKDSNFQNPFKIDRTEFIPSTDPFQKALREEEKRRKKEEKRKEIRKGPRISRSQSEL

How the values were obtained:
Assay in all cases: log2 fold change, soluble protein after heating vs DMSO (PISA); higher = thermal stabilisation; K562 cells, 10 uM, 30 min; active = over 0.2 and 3.5 SD of the protein, either way, in both replicates (recomputed)
bafetinib = compound: Cc1ccc(NC(=O)c2ccc(CN3CC[C@H](N(C)C)C3)c(C(F)(F)F)c2)cc1Nc1nccc(-c2cncnc2)n1 [bafetinib]
Summary of the method: (§1)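 Quantification of soluble protein used TMTpro 16plex LC-MS/MS, with channel sums equalised. Samples were the supernatant after 21,000xg for 90 min of pooled aliquots from K562 cells (2×10^6 cells/mL) treated with 10 μM compound for 30 min, heated for 3 min over 48°C-58°C, and extracted in PBS with 0.5% NP-40 at 4°C. Values, from duplicates, describe thermal stability against control samples on a log2 fold-change scale.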

[1] = compound: Cc1cccc(CC(=O)N2CCc3c2ccc(-c2cn(C)c4ncnc(N)c24)c3F)n1
Summary of the method: as §1

nilotinib = compound: Cc1cn(-c2cc(NC(=O)c3ccc(C)c(Nc4nccc(-c5cccnc5)n4)c3)cc(C(F)(F)F)c2)cn1 [nilotinib]
Summary of the method: as §1

[2] = compound: Cc1nc(Nc2n[nH]c3c2CN(C(=O)N[C@H](CN(C)C)c2ccccc2)C3(C)C)c2sccc2n1
Summary of the method: as §1

dasatinib = compound: Cc1nc(Nc2ncc(C(=O)Nc3c(C)cccc3Cl)s2)cc(N2CCN(CCO)CC2)n1 [dasatinib]
Summary of the method: as §1

[3] = compound: Cc1ncc(-c2ccnc(Nc3ccc(S(C)(=O)=O)cc3)n2)n1C(C)C
Summary of the method: as §1

[4] = compound: Cn1cc(-c2ccc3c(c2)CCN3C(=O)Cc2cccc(C(F)(F)F)c2)c2c(N)ncnc21
Summary of the method: as §1

[5] = compound: Cn1cc(-c2ccc3nnc(C(F)(F)c4ccc5ncccc5c4)n3n2)cn1
Summary of the method: as §1

tipifarnib = compound: Cn1cncc1[C@@](N)(c1ccc(Cl)cc1)c1ccc2c(c1)c(-c1cccc(Cl)c1)cc(=O)n2C [tipifarnib]
Summary of the method: as §1

mubritinib = compound: FC(F)(F)c1ccc(/C=C/c2nc(COc3ccc(CCCCn4ccnn4)cc3)co2)cc1 [mubritinib]
Summary of the method: as §1

[6] = compound: NC(=O)Nc1cc(-c2cccc(F)c2)sc1C(=O)N[C@H]1CCCNC1
Summary of the method: as §1

[7] = compound: NC(=O)c1cnc(N[C@@H]2CCCC[C@@H]2N)nc1Nc1cccc(-n2nccn2)c1
Summary of the method: as §1

[8] = compound: NC1(c2ccc(-c3nc4ccn5c(=O)[nH]nc5c4cc3-c3ccccc3)cc2)CCC1
Summary of the method: as §1

[9] = compound: NCC(=O)Nc1ccc(-n2nc(C(F)(F)F)cc2-c2ccc3c(ccc4ccccc43)c2)cc1
Summary of the method: as §1

entinostat = compound: Nc1ccccc1NC(=O)c1ccc(CNC(=O)OCc2cccnc2)cc1 [entinostat]
Summary of the method: as §1

vorinostat = compound: O=C(CCCCCCC(=O)Nc1ccccc1)NO [vorinostat]
Summary of the method: as §1

citarinostat = compound: O=C(CCCCCCNC(=O)c1cnc(N(c2ccccc2)c2ccccc2Cl)nc1)NO [citarinostat]
Summary of the method: as §1

silmitasertib = compound: O=C(O)c1ccc2c(c1)nc(Nc1cccc(Cl)c1)c1ccncc12 [silmitasertib]
Summary of the method: as §1

[10] = compound: O=C1NC(=O)C(c2cnc3ccccn23)=C1c1cn2c3c(cc(F)cc13)CN(C(=O)N1CCCCC1)CC2
Summary of the method: as §1

[11] = compound: c1cc(OCCN2CCCCC2)cc(-c2n[nH]c3ccc(-c4nnc[nH]4)cc23)c1
Summary of the method: as §1

| Target | log2 fold change (bafetinib) | log2 fold change [1] | log2 fold change (nilotinib) | log2 fold change [2] | log2 fold change (dasatinib) | log2 fold change [3] | log2 fold change [4] | log2 fold change [5] | log2 fold change (tipifarnib) | log2 fold change (mubritinib) | log2 fold change [6] | log2 fold change [7] | log2 fold change [8] | log2 fold change [9] | log2 fold change (entinostat) | log2 fold change (vorinostat) | log2 fold change (citarinostat) | log2 fold change (silmitasertib) | log2 fold change [10] | log2 fold change [11] |
| --- | --- | --- | --- | --- | --- | --- | --- | --- | --- | --- | --- | --- | --- | --- | --- | --- | --- | --- | --- | --- |
| CCNB2 (UniProt O95067) | inactive: -0.016 | inactive: 0.033 | inactive: 0.133 | inactive: -0.186 | inactive: -0.056 | inactive: -0.108 | inactive: 0.063 | inactive: -0.014 | inactive: -0.05 | inactive: 0.194 | inactive: -0.035 | inactive: -0.095 | inactive: -0.015 | inactive: -0.005 | inactive: 0.041 | inactive: 0.027 | inactive: -0.022 | inactive: 0.008 | inactive: -0.164 | inactive: 0.308 |
| CCDC90B (UniProt Q9GZT6) | inactive: -0.025 | inactive: -0.016 | inactive: 0.06 | inactive: 0.003 | inactive: 0.066 | inactive: -0.04 | inactive: 0.099 | inactive: 0.144 | inactive: 0.048 | inactive: 0.033 | inactive: 0.006 | inactive: 0.035 | inactive: -0.005 | inactive: 0.027 | inactive: 0.04 | inactive: -0.027 | inactive: 0.032 | inactive: -0.002 | inactive: -0.024 | inactive: -0.045 |
| CBWD1 (UniProt Q9BRT8) | inactive: 0.027 | inactive: 0.071 | inactive: -0.067 | inactive: 0 | inactive: -0.189 | inactive: 0.07 | inactive: 0.13 | inactive: 0.027 | inactive: -0.046 | inactive: 0.057 | inactive: -0.042 | inactive: -0.042 | inactive: -0.109 | inactive: 0.107 | inactive: 0.007 | inactive: 0.138 | inactive: 0.097 | inactive: 0.183 | inactive: 0.03 | inactive: -0.064 |
| CDC26 (UniProt Q8NHZ8) | inactive: -0.034 | inactive: 0.162 | inactive: -0.011 | inactive: -0.059 | inactive: 0.143 | inactive: 0.029 | inactive: 0.179 | inactive: -0.027 | inactive: 0.131 | inactive: -0.028 | inactive: 0.034 | inactive: 0.352 | inactive: 0.152 | active: 0.704 | inactive: 0.097 | inactive: 0.019 | inactive: -0.025 | inactive: -0.003 | inactive: 0.007 | inactive: -0.003 |
| CARNMT1 (UniProt Q8N4J0) | inactive: -0.044 | inactive: 0.1 | inactive: -0.013 | inactive: 0.012 | inactive: -0.104 | inactive: 0.077 | inactive: 0.017 | inactive: 0.027 | inactive: -0.008 | inactive: -0.01 | inactive: -0.062 | inactive: -0.022 | inactive: -0.09 | inactive: -0.039 | inactive: 0.035 | inactive: 0.053 | inactive: 0.015 | inactive: 0.005 | inactive: 0.014 | inactive: 0.001 |
| CCDC117 (UniProt Q8IWD4) | inactive: -0.092 | inactive: -0.05 | inactive: -0.133 | inactive: -0.016 | inactive: -0.03 | inactive: -0.103 | inactive: -0.078 | inactive: -0.066 | inactive: -0.013 | inactive: 0.07 | inactive: -0.123 | inactive: -0.265 | inactive: -0.035 | inactive: -0.118 | inactive: -0.187 | inactive: -0.02 | inactive: -0.02 | inactive: -0.001 | inactive: 0.011 | inactive: -0.107 |
| CD47 (UniProt Q08722) | inactive: -0.024 | inactive: 0.024 | inactive: 0.009 | inactive: -0.039 | inactive: 0.018 | inactive: -0.015 | inactive: 0.031 | inactive: 0.031 | inactive: 0.057 | inactive: 0.073 | inactive: -0.035 | inactive: 0.009 | inactive: 0.02 | inactive: -0.002 | inactive: 0.022 | inactive: -0.073 | inactive: 0.042 | inactive: 0.003 | inactive: -0.017 | inactive: -0.062 |
| CDC34 (UniProt P49427) | inactive: -0.018 | inactive: 0.108 | inactive: -0.203 | inactive: -0.176 | inactive: -0.133 | inactive: -0.042 | inactive: -0.024 | inactive: 0.07 | inactive: -0.018 | inactive: -0.088 | inactive: -0.035 | inactive: -0.286 | inactive: -0.337 | inactive: -0.211 | inactive: 0.165 | inactive: 0.211 | inactive: 0.051 | inactive: 0.035 | inactive: -0.083 | inactive: -0.076 |
| CCT5 (UniProt P48643) | inactive: 0.035 | inactive: 0.051 | inactive: -0.04 | inactive: 0.016 | inactive: 0.012 | inactive: 0.003 | inactive: 0.014 | inactive: 0.009 | inactive: 0.017 | inactive: -0.008 | inactive: 0.029 | inactive: 0.014 | inactive: 0.006 | inactive: 0.047 | inactive: 0.01 | inactive: 0.038 | inactive: 0.021 | inactive: -0.025 | inactive: 0.056 | inactive: -0.036 |
| CCT4 (UniProt P50991) | inactive: 0.016 | inactive: 0.057 | inactive: -0.053 | inactive: 0.017 | inactive: -0.005 | inactive: -0.005 | inactive: -0.003 | inactive: 0.003 | inactive: -0.042 | inactive: 0.016 | inactive: 0.035 | inactive: 0.015 | inactive: 0.011 | inactive: 0.039 | inactive: 0.016 | inactive: 0.033 | inactive: 0.013 | inactive: -0.031 | inactive: 0.002 | inactive: 0.003 |
| CCDC167 (UniProt Q9P0B6) | inactive: -0.024 | inactive: -0.057 | inactive: -0.03 | inactive: -0.035 | inactive: 0.193 | inactive: 0.026 | inactive: -0.185 | inactive: -0.018 | inactive: 0.142 | inactive: -0.043 | inactive: 0.014 | – | inactive: 0.046 | – | inactive: 0.031 | inactive: 0.008 | inactive: -0.014 | inactive: 0.135 | inactive: 0.038 | inactive: 0.009 |
| CD46 isoform 2 (UniProt P15529) | inactive: 0.002 | inactive: -0.023 | inactive: 0.018 | inactive: -0.027 | inactive: -0.034 | inactive: 0.018 | inactive: 0.078 | inactive: 0.012 | inactive: 0.005 | inactive: 0.001 | inactive: -0.063 | inactive: 0.056 | inactive: 0.05 | inactive: 0.059 | inactive: -0.029 | inactive: -0.018 | inactive: 0.054 | inactive: -0.084 | inactive: -0.075 | inactive: -0.069 |
| CCDC158 (UniProt Q5M9N0) | inactive: 0.077 | inactive: -0.08 | inactive: -0.062 | inactive: 0.101 | inactive: 0.171 | inactive: 0.062 | inactive: -0.106 | inactive: 0.009 | inactive: 0.019 | inactive: -0.061 | inactive: -0.101 | inactive: -0.115 | inactive: 0.101 | inactive: -0.086 | inactive: 0.078 | inactive: 0.078 | – | inactive: 0.019 | inactive: 0.055 | – |
| CCDC88A (UniProt Q3V6T2) | inactive: 0.048 | inactive: -0.126 | inactive: -0.351 | inactive: 0.092 | inactive: -0.073 | inactive: -0.293 | inactive: -0.105 | inactive: -0.048 | inactive: -0.012 | inactive: -0.023 | inactive: -0.384 | inactive: -0.183 | inactive: -0.132 | inactive: -0.048 | inactive: -0.121 | inactive: 0.023 | inactive: -0.034 | inactive: 0.113 | inactive: -0.125 | inactive: -0.02 |
| CD2AP (UniProt Q9Y5K6) | inactive: -0.072 | inactive: -0.028 | inactive: 0.01 | inactive: -0.038 | inactive: -0.021 | inactive: 0.004 | inactive: -0.01 | inactive: 0.011 | inactive: -0.002 | inactive: 0.039 | inactive: -0.008 | inactive: -0.012 | inactive: -0.071 | inactive: -0.06 | inactive: 0.01 | inactive: -0.002 | inactive: 0.033 | inactive: -0.015 | inactive: -0.032 | inactive: -0.025 |
| CCDC134 (UniProt Q9H6E4) | inactive: -0.025 | inactive: -0.003 | inactive: -0.018 | inactive: 0.038 | inactive: 0.11 | inactive: -0.081 | inactive: -0.065 | inactive: 0.046 | inactive: 0.031 | inactive: -0.024 | inactive: -0.016 | inactive: 0.025 | inactive: -0.076 | inactive: 0.004 | inactive: 0.017 | inactive: -0.009 | inactive: 0.05 | inactive: 0.035 | inactive: 0.014 | inactive: -0.046 |

Looked up above.
CD46 isoform 2 (UniProt P15529) | log2 fold change (citarinostat): inactive: 0.054
CCDC134 (UniProt Q9H6E4) | log2 fold change (silmitasertib): inactive: 0.035
